For orientation: AC50 means the midpoint of the concentration-response curve, whichever way the signal moves.

The list shows a part of the results. The main result of the screen is listed elsewhere. These columns were measured beside it and carry no call. Most of these compounds were active or inconclusive in the main read-out, so they are no random draw. The note in brackets gives the kind of curve behind each potency; many fits are weak.

The nature of the experiment: IkB Signaling. The following applies: ABC-DLBCL IkBa-CBG/CBR dual luciferase ratio (green luciferase fused to IkBa over red control in OCI-Ly3 lymphoma cells), 4 h; measured here: control luc red channel unless noted. The procedure, abridged:
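In this assay, an IκBα–CBG68 fusion accumulates when IKK-driven degradation is blocked; native CBR normalizes for cell number. OCI-Ly3 cells were treated 4 h with compound and doxycycline, then green and red light read after Chroma-Glo addition.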
With `O=C(O)c1ccc2nc(-c3cc4cc(F)ccc4oc3=O)[nH]c2c1`, the AC50 is 0.0631 µM [falling, full curve].

For the compound `Cn1ccc2c(OCC(=O)NCc3ccccc3Cl)cccc2c1=O`, the AC50 was 39.8 µM [rising, single point] [measured here: IkB-luc green channel].

As for `CCc1ccc(CNC(=O)c2ccc3nc(C(C)C)oc3c2)cc1`, the AC50 was 10 µM [falling, partial curve].

`COc1ccc(OC(C)c2nc3ccccc3[nH]2)cc1` (configuration not stated): the AC50 is 15.8 µM [falling, partial curve].

For the compound `O=C(Nc1ccc2oc(-c3cccnc3)nc2c1)c1ccc(-c2ccccc2)o1`, the AC50 was 7.94 µM [falling, full curve].

With `O=C(COC(=O)C1CCN(S(=O)(=O)c2cccs2)CC1)c1cc2ccccc2o1`, the AC50 was 7.94 µM [falling, partial curve].

With `CCn1c(CCNC(=O)c2cccs2)nnc1SCC(=O)c1ccc(OC)cc1`, the AC50 was 12.6 µM [falling, partial curve].

`COc1ccc(-c2nn(CC(=O)Nc3ccccc3F)c3c2cnc2ccc(F)cc23)cc1`: the AC50 was 0.0398 µM [rising, full curve, poor fit].

As to `O=C(Nc1ccc(N2CCN(C(=O)c3ccc(Cl)cc3)CC2)cc1)c1ccc(Br)o1`, the AC50 was 10 µM [falling, partial curve].

As to `Cc1ccc(-c2nc(S(=O)(=O)c3ccc(C)cc3)c(N3CCN(c4ccccc4)CC3)o2)cc1`, the AC50 is 10 µM [rising, partial curve].

Take `CCOc1ccc(C2C(=O)N(C3CCCCCC3)CC(=O)N2CCc2ccccc2)cc1OC` (configuration not stated): the AC50 is 1 µM [rising, partial curve].

For `CCOc1ccc(C(=O)Nc2ccc(S(=O)(=O)N3CCCCC3c3cccnc3)cc2)cc1` (configuration not stated), the AC50 is 25.1 µM [falling, partial curve].

Consider `CCc1cccc(C)c1NC(=O)Cn1c(=O)cc(C(F)(F)F)c2c(C)nn(C)c21`, for which the AC50 is 10 µM [falling, partial curve].

Take `Cc1ccc(C)c(S(=O)(=O)NCC(c2ccco2)S(=O)(=O)c2ccc(F)cc2)c1` (configuration not stated): the AC50 was 0.02 µM [rising, full curve, poor fit].

On to `Cc1ccc(N2CCN(C(=O)c3ccc4c(Cl)c5c(nc4c3)CCCC5)CC2)c(C)c1`, for which the AC50 was 10 µM [falling, partial curve].

With `O=C(Nc1ccc(F)cc1F)c1c2c(nc3ccccc13)C(=O)N(C1CCCCC1)C2`, the concentration at half-maximal activity (AC50) is 3.16 µM [falling, single point].

As for `Cc1noc(C)c1S(=O)(=O)N(CC(=O)NCc1ccccc1Cl)c1ccc(C(C)C)cc1`, the AC50 was 7.94 µM [falling, partial curve].

Regarding `O=C(NCc1cccs1)C1CCN(C(=O)N2CCOc3ccccc32)CC1`, the AC50 was 0.398 µM [rising, full curve].

For the compound `O=C(Nc1c(-c2ccccc2)nc2ccccn12)c1ccc(Br)cc1`, the half-maximal activity concentration (AC50) was 15.8 µM [falling, partial curve, poor fit].

Consider `CC(C)(C)c1csc(NC2=NS(=O)(=O)c3ccccc32)n1`, for which the AC50 was 39.8 µM [falling, single point].

As to `O=C(CSc1nc2c([nH]c3ccccc32)c(=O)n1-c1ccccc1)c1ccccc1`, the AC50 is 1 µM [rising, full curve].

As for `COc1ccccc1NC(=O)C1CCN(S(=O)(=O)c2ccc3c(c2)oc(=O)n3C)CC1`, the AC50 is 20 µM [falling, single point].

For `COc1cc(-c2nnc(SCC(=O)OC3CCCCC3)o2)cc(OC)c1OC`, the AC50 is 25.1 µM [falling, single point].

As to `CCC(CO)Nc1ncnc2c1cnn2-c1ccc(C)cc1` (configuration not stated), the AC50 was 12.6 µM [falling, partial curve].

Consider `CCOCCCn1c(SCC(=O)Nc2cccc(OC)c2)nc2ccccc2c1=O`, for which the AC50 is 39.8 µM [falling, single point].

Consider `O=C(NCc1ccc2c(c1)OCO2)c1ccc2c(c1)N(Cc1ccc(F)cc1)C(=O)c1ccccc1S2=O` (configuration not stated), for which the AC50 is 1 µM [falling, partial curve].

Take `CCOCCc1nn2c(=O)cc(COC(=O)c3cccs3)nc2s1`: the AC50 is 10 µM [falling, partial curve].

In the case of `Cc1cccc(CN2C(=O)CC(c3ccc(Cl)cc3)c3c(C)nn(-c4nc(C)cc(C)n4)c32)c1` (configuration not stated), the concentration at half-maximal activity (AC50) was 15.8 µM [falling, partial curve].

On to `COc1ccccc1N(CC(=O)Nc1ccccc1F)S(C)(=O)=O`, for which the AC50 is 0.0316 µM [falling, full curve, poor fit].

On to `CCc1ccc(NC(=O)C(CC)n2nnc(C(=O)OC)c2C(=O)OC)cc1` (configuration not stated), for which the AC50 was 3.16 µM [rising, single point].

Consider `CCCNc1nc(NCc2ccccc2OC)c2cnn(C)c2n1`, for which the AC50 was 3.98 µM [falling, partial curve, poor fit].

Take `CCN(CCCNC(=O)c1cc2c(=O)[nH]c3ccc(C)cc3c2s1)c1ccc(C)cc1`: the AC50 is 0.1 µM [rising, full curve, poor fit].

For the compound `Cn1c(/C(C#N)=C(\O)COc2ccc3ccccc3c2)nc2ccccc21`, the AC50 is 0.501 µM [rising, full curve].

Turning to `COc1ccc(NC(=O)C2=CC(c3ccc4c(c3)OCO4)=NS(=O)(=O)N2C)cc1`, the AC50 is 20 µM [falling, single point].

Regarding `Fc1ccc(-n2cc(-c3ccccc3)c3c(NCCc4ccccc4)ncnc32)cc1`, the AC50 was 31.6 µM [falling, single point].

In the case of `COc1cccc(CNC(=O)c2oc3c(c2C)-c2nn(Cc4cccc(Cl)c4)cc2CC3)c1`, the concentration at half-maximal activity (AC50) was 25.1 µM [falling, single point].

`CCOC(=O)N1CCC(n2c(SCC(=O)NCCC3=CCCCC3)nc3ccccc3c2=O)CC1`: the AC50 is 10 µM [falling, partial curve].

Consider `Cc1[nH]n(-c2ccccc2)c(=O)c1-c1ccccc1`, for which the concentration at half-maximal activity (AC50) was 10 µM [falling, partial curve].

As for `C/C(=C\C(=O)c1ccc(C)cc1)Nc1cccc(O)c1`, the AC50 was 10 µM [falling, partial curve].

For `COc1ccc(-c2nnc(COc3ccc4ccccc4c3)o2)cc1OC`, the AC50 was 6.31 µM [falling, partial curve].

For the compound `CCOc1ccccc1CNC(=O)C1CCN(c2nc3ccccc3o2)CC1`, the concentration at half-maximal activity (AC50) is 3.98 µM [falling, partial curve].

As for `Cn1c(=O)cc(OCC(=O)NCCCN2CCN(Cc3ccccc3)CC2)c2ccccc21`, the AC50 was 25.1 µM [rising, partial curve] [measured here: IkB-luc green channel].

Turning to `c1cncc(-c2nc(NCc3ccco3)c3ccccc3n2)c1`, the AC50 was 10 µM [falling, partial curve].

Consider `COc1cccc(C(=O)NCc2cn3ccccc3n2)c1`, for which the AC50 is 12.6 µM [falling, partial curve].

Take `O=C(CSc1nnc(-c2ccccc2)c(-c2ccccc2)n1)NC1CCCC1`: the AC50 was 31.6 µM [falling, partial curve].

Regarding `CCOc1ccc(C(=O)c2cn(CC(=O)Nc3ccc(F)cc3)c3cc4c(cc3c2=O)OCCO4)cc1`, the half-maximal activity concentration (AC50) is 6.31 µM [falling, partial curve].

Take `C(=C\c1ccccc1)/CN1CCN(c2ncnc3c2oc2ccccc23)CC1`: the AC50 is 0.0794 µM [falling, full curve].

Consider `CCN(Cc1ccccc1)C(=O)CCc1c(C)nc2c(c(C)nn2-c2ccc(C)c(C)c2)c1C`, for which the AC50 was 25.1 µM [falling, single point].

Take `Cc1ccc(NC(=O)c2oc3ccc(S(=O)(=O)N4CCCCC4)cc3c2C)cc1Cl`: the AC50 was 6.31 µM [falling, partial curve].

With `CCc1cccc(C)c1NC(=O)Cn1cc2c(n1)CCCC2`, the AC50 was 25.1 µM [falling, single point].

Regarding `Cn1c(=O)c2c(-c3ccc(Br)cc3)n(CCc3ccccc3)cc2n(C)c1=O`, the AC50 was 31.6 µM [falling, single point].

For `CCc1cc2cc3c(cc2nc1SCC(=O)N1CCN(C(=O)c2ccco2)CC1)OCO3`, the AC50 was 15.8 µM [falling, partial curve].

Turning to `Cc1ccc(C(C)C)c(OCC(=O)Nc2ccccc2N2CCN(C)CC2)c1`, the AC50 was 15.8 µM [falling, partial curve].

With `Cc1ccccc1C(=O)Nc1nc2nc(-c3ccccc3)cc(=O)n2[nH]1`, the AC50 was 20 µM [falling, single point].

For the compound `Clc1cccc(-n2cc(-c3ccccc3)c3c(N4CCCCC4)ncnc32)c1`, the AC50 was 39.8 µM [falling, single point].

`CCC(c1nnnn1Cc1ccc2c(c1)OCO2)N1CCN(c2ccccc2)CC1` (configuration not stated): the AC50 was 31.6 µM [falling, single point].

`CCOc1cc(C(=O)NCCc2csc3nc(-c4ccccc4F)nn23)cc(OCC)c1OCC`: the AC50 is 12.6 µM [falling, partial curve, poor fit].

On to `COc1ccc(Cn2c(C(=O)O)c(CNCCc3ccco3)c3ccc(C)cc32)cc1`, for which the AC50 was 10 µM [falling, partial curve].

For the compound `O=C(CN1C(=O)CCn2nc(-c3ccccc3)cc21)NCc1ccc(F)cc1`, the AC50 is 25.1 µM [falling, partial curve].

`CCCc1[nH][nH]c(=O)c1C(c1cccc(Cl)c1)C(C#N)C#N` (configuration not stated): the AC50 was 31.6 µM [rising, single point] [measured here: IkB-luc green channel].

On to `CCOc1ccc(NC(=O)c2cnn(-c3ccc(C)c(C)c3)c2C2CCN(C(=O)OC(C)(C)C)CC2)cc1`, for which the AC50 was 0.01 µM [falling, full curve, poor fit].

In the case of `CCc1ccc(OCC(=O)N(Cc2ccco2)Cc2ccccc2Cl)cc1`, the AC50 is 31.6 µM [falling, partial curve].

These data come from PubChem BioAssay AID445 (National Center for Advancing Translational Sciences (NCATS), 2006).
